Reference: paper PMC12440825

By UniProt entry, the sequences of proteins in these tests, tags left out. Where a name states a change or a piece, a line headed by the entry shows the natural chain unless it says otherwise.
UniProt P32867: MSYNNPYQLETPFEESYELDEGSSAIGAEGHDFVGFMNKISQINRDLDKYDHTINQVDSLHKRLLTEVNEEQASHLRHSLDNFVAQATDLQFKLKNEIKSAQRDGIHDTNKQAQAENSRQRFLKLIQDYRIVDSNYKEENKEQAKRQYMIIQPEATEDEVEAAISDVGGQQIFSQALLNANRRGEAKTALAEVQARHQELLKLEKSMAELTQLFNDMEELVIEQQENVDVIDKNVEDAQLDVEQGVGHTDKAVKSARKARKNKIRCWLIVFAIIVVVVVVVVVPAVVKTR
UniProt P31109: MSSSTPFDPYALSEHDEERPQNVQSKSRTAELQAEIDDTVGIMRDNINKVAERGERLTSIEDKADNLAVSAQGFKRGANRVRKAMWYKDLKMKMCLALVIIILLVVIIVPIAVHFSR

Biological target: Sso1 tagged with mVenus (S. cerevisiae) (UniProt P32867)
Assay: FRET or BRET; bulk FRET in the assembled yeast SNARE complex between mTurq on Snc1 and mVenus on Sso1; excitation 434 nm; plate reader, 384-well format; both purified

Snc1 tagged with mTurq (from UniProt P31109)
binding: binds

These are yes or no findings as the source states them, for the method shown. A result given as binding can be weak or reduced; the word gives no strength.
